# Primary screen of a compound library

By UniProt entry, the sequences of proteins in these tests, tags left out.
UniProt I6X8D2, whole entry: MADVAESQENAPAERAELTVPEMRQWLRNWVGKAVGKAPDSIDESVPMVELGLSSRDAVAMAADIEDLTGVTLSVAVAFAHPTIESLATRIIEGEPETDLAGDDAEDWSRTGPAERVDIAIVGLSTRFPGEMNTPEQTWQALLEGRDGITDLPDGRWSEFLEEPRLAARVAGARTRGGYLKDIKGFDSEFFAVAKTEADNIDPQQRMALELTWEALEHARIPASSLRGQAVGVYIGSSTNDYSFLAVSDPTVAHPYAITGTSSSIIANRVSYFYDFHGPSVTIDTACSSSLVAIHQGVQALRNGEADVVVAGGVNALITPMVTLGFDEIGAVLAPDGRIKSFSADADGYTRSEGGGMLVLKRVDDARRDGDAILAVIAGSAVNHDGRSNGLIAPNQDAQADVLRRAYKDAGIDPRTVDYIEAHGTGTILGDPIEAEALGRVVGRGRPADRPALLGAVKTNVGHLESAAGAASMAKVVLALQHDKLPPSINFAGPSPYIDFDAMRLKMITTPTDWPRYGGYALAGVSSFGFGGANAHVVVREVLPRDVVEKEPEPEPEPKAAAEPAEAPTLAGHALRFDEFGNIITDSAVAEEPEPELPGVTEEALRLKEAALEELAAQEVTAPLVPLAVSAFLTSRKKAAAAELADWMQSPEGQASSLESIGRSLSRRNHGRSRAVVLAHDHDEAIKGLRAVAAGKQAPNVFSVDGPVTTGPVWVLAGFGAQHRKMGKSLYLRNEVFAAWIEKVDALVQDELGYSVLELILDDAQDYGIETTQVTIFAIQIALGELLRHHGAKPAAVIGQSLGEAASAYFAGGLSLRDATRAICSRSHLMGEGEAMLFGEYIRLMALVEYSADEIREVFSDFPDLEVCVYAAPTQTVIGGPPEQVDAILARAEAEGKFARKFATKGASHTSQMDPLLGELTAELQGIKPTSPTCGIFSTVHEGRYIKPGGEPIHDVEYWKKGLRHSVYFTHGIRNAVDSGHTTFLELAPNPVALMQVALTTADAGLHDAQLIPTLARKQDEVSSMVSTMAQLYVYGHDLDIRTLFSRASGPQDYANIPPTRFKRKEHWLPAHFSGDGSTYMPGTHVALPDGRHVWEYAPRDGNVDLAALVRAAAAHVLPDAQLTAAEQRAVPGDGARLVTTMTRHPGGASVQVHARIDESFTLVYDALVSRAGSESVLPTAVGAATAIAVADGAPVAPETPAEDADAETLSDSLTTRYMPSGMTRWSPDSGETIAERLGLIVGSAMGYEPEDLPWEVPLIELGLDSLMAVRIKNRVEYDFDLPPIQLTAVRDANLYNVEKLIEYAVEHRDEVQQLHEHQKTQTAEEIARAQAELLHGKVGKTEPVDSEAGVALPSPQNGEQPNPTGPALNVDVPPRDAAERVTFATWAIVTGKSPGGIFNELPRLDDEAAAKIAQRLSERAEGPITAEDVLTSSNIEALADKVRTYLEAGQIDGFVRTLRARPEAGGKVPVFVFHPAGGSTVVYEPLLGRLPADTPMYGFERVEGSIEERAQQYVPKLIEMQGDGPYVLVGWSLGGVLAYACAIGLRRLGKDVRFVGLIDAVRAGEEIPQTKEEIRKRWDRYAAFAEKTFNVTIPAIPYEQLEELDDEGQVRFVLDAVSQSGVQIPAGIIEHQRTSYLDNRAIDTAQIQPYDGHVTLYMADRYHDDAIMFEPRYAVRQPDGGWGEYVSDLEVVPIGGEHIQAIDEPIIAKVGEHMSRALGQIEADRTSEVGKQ
UniProt P9WNZ1, whole entry: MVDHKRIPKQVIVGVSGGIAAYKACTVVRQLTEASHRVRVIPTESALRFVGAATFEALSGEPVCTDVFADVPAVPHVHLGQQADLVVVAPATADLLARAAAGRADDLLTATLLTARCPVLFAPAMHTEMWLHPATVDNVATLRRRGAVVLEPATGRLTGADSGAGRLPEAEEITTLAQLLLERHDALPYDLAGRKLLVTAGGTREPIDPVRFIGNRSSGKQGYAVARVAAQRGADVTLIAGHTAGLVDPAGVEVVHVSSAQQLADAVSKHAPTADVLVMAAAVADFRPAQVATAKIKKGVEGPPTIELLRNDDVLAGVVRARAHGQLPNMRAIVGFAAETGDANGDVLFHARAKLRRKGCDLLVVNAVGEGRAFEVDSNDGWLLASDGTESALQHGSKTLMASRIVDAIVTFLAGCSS
UniProt P9WPC5, whole entry: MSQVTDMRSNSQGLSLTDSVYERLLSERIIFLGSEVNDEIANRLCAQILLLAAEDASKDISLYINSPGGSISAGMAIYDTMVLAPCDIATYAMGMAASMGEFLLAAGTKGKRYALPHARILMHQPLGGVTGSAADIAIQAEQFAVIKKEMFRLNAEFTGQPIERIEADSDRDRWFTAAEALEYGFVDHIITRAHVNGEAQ
UniProt P9WPC3, whole entry partner: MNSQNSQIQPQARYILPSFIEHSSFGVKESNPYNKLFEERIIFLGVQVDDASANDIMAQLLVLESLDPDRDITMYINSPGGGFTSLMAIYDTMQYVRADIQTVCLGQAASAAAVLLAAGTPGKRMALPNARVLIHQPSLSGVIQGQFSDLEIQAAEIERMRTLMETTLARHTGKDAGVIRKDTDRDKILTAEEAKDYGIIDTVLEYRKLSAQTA
UniProt P9WFT3, whole entry: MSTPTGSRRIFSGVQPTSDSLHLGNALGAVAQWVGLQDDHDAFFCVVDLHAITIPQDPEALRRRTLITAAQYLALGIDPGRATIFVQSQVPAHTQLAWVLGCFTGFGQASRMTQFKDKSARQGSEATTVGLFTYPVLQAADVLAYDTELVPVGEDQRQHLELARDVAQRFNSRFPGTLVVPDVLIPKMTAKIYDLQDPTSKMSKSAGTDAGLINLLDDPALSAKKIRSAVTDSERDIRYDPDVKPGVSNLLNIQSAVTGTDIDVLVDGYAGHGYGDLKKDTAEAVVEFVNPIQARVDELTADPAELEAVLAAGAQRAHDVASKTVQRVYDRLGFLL

Each number is a percent effect as filed.
The record does not define 0% and 100%; most values in the screen are far below 50% and negative numbers occur (in some assays of this library far below -100).
This is an unselected part of the compounds tested.
A dash means the value is not listed here; it may have been measured.

Pks13 thioesterase: 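Polyketide synthase Pks13, Mycobacterium tuberculosis (UniProt I6X8D2). Enzyme assay of the thioesterase domain of polyketide synthase 13; the read-out is not stated. Compounds at 30 µM. Higher reads as stronger inhibition (inferred from which compounds were picked for retests). Of about 67,000 compounds tested this way, about 300 (0.46%) reached 50% or more in at least one test.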
Toxoplasma: 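Assay of Toxoplasma gondii numbers, read through their beta-galactosidase reporter with a colour substrate. Tested at 10 µM. The record gives no direction; the compounds picked for IC50 retests had high values, so higher reads as fewer parasites. Of about 67,000 compounds tested this way, about 260 (0.38%) reached 50% or more in at least one test.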
CoaBC: 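Enzyme assay of CoaBC with a phosphate dye (Biomol Green) read at 650 nm. Target: Coenzyme A biosynthesis protein CoaBC, Mycobacterium tuberculosis (UniProt P9WNZ1). Concentration: 30 µM. Direction is inferred from only a few compounds that gave an IC50; most scored high, so higher reads as stronger inhibition. Most strong results did not repeat in a second test. About 67,000 compounds were tested under these conditions; 0.06% (about 40) showed 50% or more at least once.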
ClpP1P2: 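ClpP1P2, Mycobacterium tuberculosis (UniProt P9WPC5 and UniProt P9WPC3). Protease assay of ClpP1P2, read by the AMC dye that it sets free. Compounds at 50 µM. Direction is inferred from only a few compounds that gave an IC50; most scored high, so higher reads as stronger inhibition. Most other retested compounds had strongly negative values. About 69,000 compounds were tested under these conditions; 0.015% (about 10) showed 50% or more at least once.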
Leishmania in macrophages: 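Cell assay of Leishmania donovani living inside macrophages; the read-out is not stated. Concentration: 30 µM. Higher reads as stronger inhibition (inferred: compounds with an IC50 in retests scored well above the rest). Size under these conditions: about 69,000 compounds, about 1,000 of them at 50% or above in at least one test.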
MtTrpRS: 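Tryptophan-tRNA ligase, Mycobacterium tuberculosis (UniProt P9WFT3). Enzyme assay of tryptophanyl-tRNA synthetase; the read-out is not stated. Concentration: 10 µM. Higher most likely means stronger inhibition; the record gives no direction and few retests gave an IC50. About 65,000 compounds were tested under these conditions; 0.098% (about 64) showed 50% or more at least once.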

{"compound": "CN(Cc1ncnn1C)c1ccnc(Cc2ccccc2)n1", "Pks13 thioesterase": -11.67, "Toxoplasma": -2.403, "CoaBC": 0, "ClpP1P2": -3.984, "Leishmania in macrophages": 5.89, "MtTrpRS": -0.9518}
{"compound": "CCc1cnc(CN2CCC(N(C)Cc3noc(C4CC4)n3)C2)o1", "stereo": "centres unmarked", "Pks13 thioesterase": 4.344, "Toxoplasma": -8.565, "CoaBC": -0.527, "ClpP1P2": 0.6996, "Leishmania in macrophages": -13.25, "MtTrpRS": 3.155}
{"compound": "Cc1c(NC(=O)CN2CCC(Oc3cnccn3)CC2)cnn1C", "Pks13 thioesterase": -0.07857, "CoaBC": 7.838, "ClpP1P2": -11.62, "Leishmania in macrophages": -8.443, "MtTrpRS": -3.057}
{"compound": "CCN1C(=O)C[C@@H]2[C@@H]1CCN2S(=O)(=O)c1ccccc1", "Pks13 thioesterase": -34.08, "CoaBC": 5.089, "ClpP1P2": -5.552, "MtTrpRS": -5.093}
{"compound": "Cc1nn(C)c2c(N3CCN(C)CC3)nc(C3CC3)nc12", "Pks13 thioesterase": -32.93, "Toxoplasma": 7.951, "CoaBC": 1.459, "ClpP1P2": 10.64, "Leishmania in macrophages": 14.7, "MtTrpRS": 2.083}
{"compound": "Cc1nnc(NCCc2nc3ccc(F)cc3n2C)c(C#N)c1C", "Pks13 thioesterase": -8.766, "Toxoplasma": 10.08, "CoaBC": 5.623, "ClpP1P2": -6.408, "Leishmania in macrophages": 18.14, "MtTrpRS": -1.192}
{"compound": "Cc1ccsc1C(=O)NCC1COCc2c(C)nnn2C1", "stereo": "centres unmarked", "Pks13 thioesterase": 2.599, "Toxoplasma": 2.954, "CoaBC": -5.057, "ClpP1P2": -11.48, "Leishmania in macrophages": -34.45, "MtTrpRS": 0.08032}
{"compound": "O=C(O)c1cc(N2C[C@H](NC(=O)C3CCOCC3)[C@@H](C3CC3)C2)ccn1", "Pks13 thioesterase": -0.8328, "Toxoplasma": 4.273, "CoaBC": 4.545, "ClpP1P2": -7.602, "Leishmania in macrophages": 6.985, "MtTrpRS": -1.041}
{"compound": "O=C(C1CCOCC1)N1CCC2(CCNCC2)C1", "Pks13 thioesterase": -11.4, "Toxoplasma": -8.691, "CoaBC": 1.673, "ClpP1P2": -10.06, "Leishmania in macrophages": 0.1343, "MtTrpRS": -12.21}
{"compound": "COC(=O)CCC(=O)N1CCC2(CN(Cc3ccccc3F)C2)C1", "Pks13 thioesterase": -15.22, "Toxoplasma": 15.52, "CoaBC": -4.444, "ClpP1P2": 1.603, "Leishmania in macrophages": 8.644, "MtTrpRS": -2.995}
{"compound": "CCS(=O)(=O)c1ccccc1C(=O)NCc1ccnc(N(C)C)c1", "Pks13 thioesterase": -15.15, "Toxoplasma": 6.776, "CoaBC": 3.373, "ClpP1P2": 13.27, "Leishmania in macrophages": -1.956, "MtTrpRS": -0.5596}
{"compound": "CC(C)Oc1cccc(C(=O)C2CCCN(S(=O)(=O)C(C)C)C2)c1", "stereo": "centres unmarked", "Pks13 thioesterase": 12.57, "Toxoplasma": -38.61, "CoaBC": 2.737, "ClpP1P2": -21.49, "Leishmania in macrophages": 12.32, "MtTrpRS": 2.143}
{"compound": "CNCCc1nc2cc(Cl)ccc2[nH]1", "Pks13 thioesterase": -2.985, "CoaBC": -26.34, "ClpP1P2": -0.7768, "MtTrpRS": -1.776}
{"compound": "Cc1nc(C)n(CC2CCCN(CC3CCCCC3)C2)n1", "stereo": "centres unmarked", "Pks13 thioesterase": -25.02, "Toxoplasma": 7.301, "CoaBC": 6.266, "ClpP1P2": -43.36, "Leishmania in macrophages": 16.3, "MtTrpRS": 1.881}
{"compound": "O=C1[C@@H]2CN(c3ncnc4sccc34)C[C@]2(C(=O)O)CN1CC1CC1", "Pks13 thioesterase": -6.633, "CoaBC": 5.411, "ClpP1P2": -10.85, "MtTrpRS": -0.8051}

The last 2 entries again:

| Compound | Pks13 thioesterase | Toxoplasma | CoaBC | ClpP1P2 | Leishmania in macrophages | MtTrpRS |
|---|---|---|---|---|---|---|
| `Cc1nc(C)n(CC2CCCN(CC3CCCCC3)C2)n1` (centres unmarked) | -25.02% | 7.301% | 6.266% | -43.36% | 16.3% | 1.881% |
| `O=C1[C@@H]2CN(c3ncnc4sccc34)C[C@]2(C(=O)O)CN1CC1CC1` | -6.633% | - | 5.411% | -10.85% | - | -0.8051% |

From ChEMBL document CHEMBL3988442, “University of Dundee, Small-Polar-MMV Screening Library” (2021).